PubChem BioAssay AID1159578 – Peter MacCallum Cancer Centre | 2015
Shown is a random part of about 18,000 reagents. Over the whole deposit, about 1,030 (5.7%) were called active. 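Inactive calls also include pools with fewer than 3300 nuclei, whose migration was not assessed.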 Raw values are not corrected between plates.

Assay: 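siRNA pools altering how lymphatic endothelial cells close a scratch wound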 (primary screen)
Cells: human lymphatic endothelial cells
Reagent: siRNA pool against human genes, 40 nM
Duration: 48 h after transfection
Measured: 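High-content imaging of dye-stained cells in a scratch assay measures filled wound area and nuclei per well; duplicate means given as ratio to mock and robust z-score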
Scale: migration robust z-score: higher = faster migration into the scratch; migration relative to mock: higher = more scratch area covered than mock; nuclei per well: higher = more cells in the well
Call rule: 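Migration changed when robust z exceeds 2 or falls below -2 and mean nuclei number is at least 3300; otherwise not called changed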
Calls: active = migration changed; inactive = no migration change, or too few cells

Gene,migration robust z-score,migration class with cell-count check,migration relative to mock,"nuclei per well, duplicate mean",Outcome
GABRA4 (GeneID 2557),1.69,migration z between -2 and 2; enough cells,1.13,4046,inactive
SYCP1 (GeneID 6847),-2.52,migration z below -2; enough cells,0.23,5402,active
COG8 (GeneID 84342),-0.3,migration z between -2 and 2; enough cells,0.8,5406,inactive
ZNF273 (GeneID 10793),2.25,migration z above 2; enough cells,1.47,6091,active
EIF4EBP3 (GeneID 8637),-0.55,under 3300 nuclei; migration not judged,0.74,3175,inactive
LCE2C (GeneID 353140),-1.27,migration z between -2 and 2; enough cells,0.55,5496,inactive
MAST1 (GeneID 22983),1.09,migration z between -2 and 2; enough cells,1.02,4730,inactive
TMEM69 (GeneID 51249),-0.07,migration z between -2 and 2; enough cells,0.86,4764,inactive
RPS19BP1 (GeneID 91582),-1.75,under 3300 nuclei; migration not judged,0.44,2794,inactive
ACTR1B (GeneID 10120),0.84,migration z between -2 and 2; enough cells,1.1,5125,inactive
SPAG8 (GeneID 26206),0.3,migration z between -2 and 2; enough cells,0.96,5532,inactive
SARS1 (GeneID 6301),0.65,migration z between -2 and 2; enough cells,0.93,4890,inactive
PIERCE1 (GeneID 138162),0.73,migration z between -2 and 2; enough cells,1.07,5620,inactive
SHH (GeneID 6469),-1.06,migration z between -2 and 2; enough cells,0.6,5360,inactive
RNF24 (GeneID 11237),0.5,migration z between -2 and 2; enough cells,0.9,6376,inactive
LMO2 (GeneID 4005),0.88,migration z between -2 and 2; enough cells,1.12,5660,inactive
RPL37A (GeneID 6168),-2.16,migration z below -2; enough cells,0.33,3854,active
RUBCNL (GeneID 80183),0.78,migration z between -2 and 2; enough cells,1.09,6233,inactive
SLX4IP (GeneID 128710),-0.04,migration z between -2 and 2; enough cells,0.88,5832,inactive
ITGB3 (GeneID 3690),0.18,migration z between -2 and 2; enough cells,0.84,4856,inactive
KIAA0319L (GeneID 79932),1.23,migration z between -2 and 2; enough cells,1.21,5224,inactive
NSMCE2 (GeneID 286053),-0.57,migration z between -2 and 2; enough cells,0.74,6743,inactive
TYMS (GeneID 7298),0.65,migration z between -2 and 2; enough cells,0.93,5738,inactive
OR51E2 (GeneID 81285),-0.25,migration z between -2 and 2; enough cells,0.82,5770,inactive
PRC1 (GeneID 9055),0.32,migration z between -2 and 2; enough cells,0.97,4287,inactive
ARL8A (GeneID 127829),0.1,migration z between -2 and 2; enough cells,0.91,6150,inactive
WLS (GeneID 79971),-0.09,migration z between -2 and 2; enough cells,0.86,5800,inactive
ACTRT3 (GeneID 84517),1.45,migration z between -2 and 2; enough cells,1.26,6032,inactive
FABP6 (GeneID 2172),-0.46,migration z between -2 and 2; enough cells,0.72,5426,inactive
KLRC1 (GeneID 3821),0.21,migration z between -2 and 2; enough cells,0.94,4576,inactive
TRIML1 (GeneID 339976),-2.28,migration z below -2; enough cells,0.36,3554,active
GLMN (GeneID 11146),-0.02,migration z between -2 and 2; enough cells,0.88,6340,inactive
KREMEN1 (GeneID 83999),2.18,migration z above 2; enough cells,1.46,5554,active
TMEM50A (GeneID 23585),0.5,migration z between -2 and 2; enough cells,1.02,6924,inactive
SLC22A8 (GeneID 9376),-0.44,migration z between -2 and 2; enough cells,0.72,4081,inactive
BCL3 (GeneID 602),-1.04,migration z between -2 and 2; enough cells,0.6,5362,inactive
CCDC42 (GeneID 146849),-1.74,migration z between -2 and 2; enough cells,0.42,5121,inactive
FOXH1 (GeneID 8928),0.24,migration z between -2 and 2; enough cells,0.85,5928,inactive
ZSCAN20 (GeneID 7579),-0.38,migration z between -2 and 2; enough cells,0.79,5093,inactive
MRPL48 (GeneID 51642),1.24,migration z between -2 and 2; enough cells,1.21,7035,inactive
TNFRSF10C (GeneID 8794),0.62,migration z between -2 and 2; enough cells,0.92,6098,inactive
KCTD5 (GeneID 54442),-0.08,migration z between -2 and 2; enough cells,0.79,5386,inactive
ZNF518A (GeneID 9849),1.02,migration z between -2 and 2; enough cells,1.15,5848,inactive
PLAT (GeneID 5327),-0.29,migration z between -2 and 2; enough cells,0.75,6042,inactive
VPS39 (GeneID 23339),0.15,migration z between -2 and 2; enough cells,0.92,6028,inactive
ANXA7 (GeneID 310),-1.58,migration z between -2 and 2; enough cells,0.5,6830,inactive
TRIM60 (GeneID 166655),0.65,migration z between -2 and 2; enough cells,0.93,6217,inactive
H3C8 (GeneID 8355),-0.99,migration z between -2 and 2; enough cells,0.63,5530,inactive
SYK (GeneID 6850),-1.97,migration z between -2 and 2; enough cells,0.42,3571,inactive
ASMT (GeneID 438),-0.47,migration z between -2 and 2; enough cells,0.72,5069,inactive
ZFYVE21 (GeneID 79038),-0.48,migration z between -2 and 2; enough cells,0.76,5128,inactive
MAOA (GeneID 4128),-2.15,migration z below -2; enough cells,0.39,5282,active
B3GNT3 (GeneID 10331),1.46,migration z between -2 and 2; enough cells,1.08,5436,inactive
CD300C (GeneID 10871),-1.79,migration z between -2 and 2; enough cells,0.46,5340,inactive
WDR64 (GeneID 128025),0.05,migration z between -2 and 2; enough cells,0.9,6306,inactive
ZBBX (GeneID 79740),1.01,migration z between -2 and 2; enough cells,1.15,5063,inactive
SCAMP1 (GeneID 9522),-0.78,migration z between -2 and 2; enough cells,0.66,6328,inactive

Already shown: an excerpt of the list.
Gene,migration robust z-score,migration class with cell-count check,migration relative to mock,"nuclei per well, duplicate mean",Outcome
SLX4IP (GeneID 128710),-0.04,migration z between -2 and 2; enough cells,0.88,5832,inactive
ITGB3 (GeneID 3690),0.18,migration z between -2 and 2; enough cells,0.84,4856,inactive
KIAA0319L (GeneID 79932),1.23,migration z between -2 and 2; enough cells,1.21,5224,inactive
NSMCE2 (GeneID 286053),-0.57,migration z between -2 and 2; enough cells,0.74,6743,inactive
TYMS (GeneID 7298),0.65,migration z between -2 and 2; enough cells,0.93,5738,inactive
OR51E2 (GeneID 81285),-0.25,migration z between -2 and 2; enough cells,0.82,5770,inactive
PRC1 (GeneID 9055),0.32,migration z between -2 and 2; enough cells,0.97,4287,inactive
ARL8A (GeneID 127829),0.1,migration z between -2 and 2; enough cells,0.91,6150,inactive
